The supplement of paper PMC12823440, “Inhibitors supercharge kinase turnover through native proteolytic circuits” (Nature, 2025)
Structures can show the parent of a compound that is named as a salt. This is one part of the list. Hit calls seldom repeat between salt and free forms of one compound.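 Kinases, fused to nanoluciferase, were expressed in K562 cells; luminescence was measured every 4 h from 2 to 18 h as percent of control (DMSO = 100%, positive control = 0%). A time point is decreased if signal falls significantly (2 sigma). Hits were called by the authors by a rule that is not shown; the count of time points alone does not decide it.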

Protein sequences, listed by entry. Tags and fused reporters are not part of them. Lines headed by an entry give the natural chain unless they say otherwise; changes in a name come on top.
UniProt P06239: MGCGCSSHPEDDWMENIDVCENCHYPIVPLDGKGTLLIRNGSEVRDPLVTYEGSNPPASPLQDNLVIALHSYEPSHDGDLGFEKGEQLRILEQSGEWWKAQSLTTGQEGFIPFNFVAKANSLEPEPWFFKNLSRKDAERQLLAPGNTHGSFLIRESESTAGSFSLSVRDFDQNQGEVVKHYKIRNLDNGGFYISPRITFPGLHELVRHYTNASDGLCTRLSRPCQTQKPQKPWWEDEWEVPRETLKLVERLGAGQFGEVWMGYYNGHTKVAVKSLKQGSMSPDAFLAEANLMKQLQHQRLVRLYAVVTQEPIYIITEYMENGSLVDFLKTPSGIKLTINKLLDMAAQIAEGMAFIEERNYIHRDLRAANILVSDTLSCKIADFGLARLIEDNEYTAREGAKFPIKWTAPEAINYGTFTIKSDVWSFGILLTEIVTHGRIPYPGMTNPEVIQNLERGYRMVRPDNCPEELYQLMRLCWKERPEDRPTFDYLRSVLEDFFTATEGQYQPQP
UniProt P53667: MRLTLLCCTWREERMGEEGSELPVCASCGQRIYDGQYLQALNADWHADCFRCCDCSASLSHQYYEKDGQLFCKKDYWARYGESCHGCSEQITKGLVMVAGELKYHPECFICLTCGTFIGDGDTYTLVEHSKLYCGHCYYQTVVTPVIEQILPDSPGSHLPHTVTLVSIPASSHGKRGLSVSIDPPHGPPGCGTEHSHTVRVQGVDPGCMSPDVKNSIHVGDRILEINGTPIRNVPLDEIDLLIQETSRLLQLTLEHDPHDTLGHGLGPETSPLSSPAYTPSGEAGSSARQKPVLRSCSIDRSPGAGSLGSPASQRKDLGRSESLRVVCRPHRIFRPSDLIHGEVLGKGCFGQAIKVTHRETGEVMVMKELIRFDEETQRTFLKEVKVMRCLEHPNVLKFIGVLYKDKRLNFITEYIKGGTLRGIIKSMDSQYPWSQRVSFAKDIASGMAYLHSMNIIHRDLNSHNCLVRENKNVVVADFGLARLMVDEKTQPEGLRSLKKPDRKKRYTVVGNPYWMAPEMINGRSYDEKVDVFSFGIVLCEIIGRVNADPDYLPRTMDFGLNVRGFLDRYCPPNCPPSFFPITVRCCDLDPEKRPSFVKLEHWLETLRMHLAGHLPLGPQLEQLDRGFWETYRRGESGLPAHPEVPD
UniProt Q8IWU2: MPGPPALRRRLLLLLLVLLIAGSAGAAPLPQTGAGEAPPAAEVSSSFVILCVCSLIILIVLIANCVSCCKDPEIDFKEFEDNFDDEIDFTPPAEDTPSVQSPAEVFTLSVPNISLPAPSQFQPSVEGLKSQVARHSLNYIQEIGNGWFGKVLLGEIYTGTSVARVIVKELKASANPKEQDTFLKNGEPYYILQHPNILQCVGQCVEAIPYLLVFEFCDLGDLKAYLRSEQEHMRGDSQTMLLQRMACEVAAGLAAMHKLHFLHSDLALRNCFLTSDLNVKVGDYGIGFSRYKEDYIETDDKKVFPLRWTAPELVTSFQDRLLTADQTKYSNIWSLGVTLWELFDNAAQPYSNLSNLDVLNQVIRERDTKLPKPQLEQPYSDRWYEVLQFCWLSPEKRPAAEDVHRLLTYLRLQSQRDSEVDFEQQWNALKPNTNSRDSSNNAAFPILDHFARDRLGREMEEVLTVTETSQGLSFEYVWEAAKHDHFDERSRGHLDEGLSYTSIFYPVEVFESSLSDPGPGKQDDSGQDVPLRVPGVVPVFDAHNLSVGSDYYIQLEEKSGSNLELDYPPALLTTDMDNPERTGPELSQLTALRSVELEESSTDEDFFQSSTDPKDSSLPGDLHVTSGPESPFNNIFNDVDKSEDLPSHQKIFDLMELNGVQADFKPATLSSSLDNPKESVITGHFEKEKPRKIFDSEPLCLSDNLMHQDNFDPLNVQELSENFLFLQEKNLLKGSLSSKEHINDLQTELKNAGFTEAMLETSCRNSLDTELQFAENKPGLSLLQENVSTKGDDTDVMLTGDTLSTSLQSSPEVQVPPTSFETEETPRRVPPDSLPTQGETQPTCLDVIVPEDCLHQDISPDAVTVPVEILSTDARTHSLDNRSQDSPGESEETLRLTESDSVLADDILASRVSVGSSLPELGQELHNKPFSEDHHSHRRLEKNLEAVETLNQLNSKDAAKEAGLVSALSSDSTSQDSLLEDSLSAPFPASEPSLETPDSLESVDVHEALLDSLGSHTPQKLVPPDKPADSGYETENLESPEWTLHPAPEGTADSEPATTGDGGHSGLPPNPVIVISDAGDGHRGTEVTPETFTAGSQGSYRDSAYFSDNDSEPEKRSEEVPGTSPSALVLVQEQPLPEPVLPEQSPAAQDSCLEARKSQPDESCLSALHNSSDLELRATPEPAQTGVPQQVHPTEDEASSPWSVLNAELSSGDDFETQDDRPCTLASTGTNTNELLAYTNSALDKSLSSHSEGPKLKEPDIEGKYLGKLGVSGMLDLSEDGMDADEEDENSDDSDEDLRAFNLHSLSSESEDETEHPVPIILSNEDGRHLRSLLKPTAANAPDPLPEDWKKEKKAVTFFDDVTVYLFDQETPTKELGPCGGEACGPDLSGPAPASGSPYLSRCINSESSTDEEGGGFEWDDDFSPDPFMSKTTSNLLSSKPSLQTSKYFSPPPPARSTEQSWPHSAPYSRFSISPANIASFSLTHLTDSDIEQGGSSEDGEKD
UniProt P07948: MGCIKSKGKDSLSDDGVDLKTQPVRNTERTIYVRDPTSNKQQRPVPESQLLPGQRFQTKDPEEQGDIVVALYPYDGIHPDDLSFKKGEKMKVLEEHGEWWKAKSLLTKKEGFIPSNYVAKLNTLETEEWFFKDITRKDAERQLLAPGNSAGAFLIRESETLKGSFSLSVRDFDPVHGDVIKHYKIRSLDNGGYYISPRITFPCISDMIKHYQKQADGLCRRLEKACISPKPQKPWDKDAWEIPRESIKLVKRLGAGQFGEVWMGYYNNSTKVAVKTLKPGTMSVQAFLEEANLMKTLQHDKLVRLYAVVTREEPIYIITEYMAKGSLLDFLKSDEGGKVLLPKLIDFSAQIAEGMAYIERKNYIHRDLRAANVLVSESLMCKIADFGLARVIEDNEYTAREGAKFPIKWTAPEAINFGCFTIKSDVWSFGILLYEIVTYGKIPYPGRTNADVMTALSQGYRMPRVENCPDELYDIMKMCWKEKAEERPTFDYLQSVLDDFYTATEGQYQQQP
UniProt P28482, whole entry: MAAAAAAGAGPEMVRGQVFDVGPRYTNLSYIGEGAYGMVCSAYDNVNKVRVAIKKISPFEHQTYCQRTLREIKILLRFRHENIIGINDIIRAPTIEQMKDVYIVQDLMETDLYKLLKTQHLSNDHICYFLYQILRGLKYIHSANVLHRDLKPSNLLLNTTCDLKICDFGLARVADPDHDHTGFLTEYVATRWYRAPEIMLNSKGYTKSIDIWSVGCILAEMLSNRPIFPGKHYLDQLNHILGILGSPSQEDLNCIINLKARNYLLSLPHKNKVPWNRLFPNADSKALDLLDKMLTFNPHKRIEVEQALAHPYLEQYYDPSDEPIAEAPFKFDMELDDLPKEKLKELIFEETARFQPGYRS
UniProt P49137, whole entry, looked up: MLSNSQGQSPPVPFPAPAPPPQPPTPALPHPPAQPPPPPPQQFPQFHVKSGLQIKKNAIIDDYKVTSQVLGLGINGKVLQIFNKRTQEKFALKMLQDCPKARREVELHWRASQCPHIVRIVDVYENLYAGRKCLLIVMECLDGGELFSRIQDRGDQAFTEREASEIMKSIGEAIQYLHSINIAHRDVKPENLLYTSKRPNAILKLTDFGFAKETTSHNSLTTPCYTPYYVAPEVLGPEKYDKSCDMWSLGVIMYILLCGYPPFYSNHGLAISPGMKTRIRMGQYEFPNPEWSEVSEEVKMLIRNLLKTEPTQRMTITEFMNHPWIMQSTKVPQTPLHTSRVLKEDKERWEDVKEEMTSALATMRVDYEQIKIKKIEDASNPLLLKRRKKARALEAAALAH
UniProt Q16288, whole entry, looked up: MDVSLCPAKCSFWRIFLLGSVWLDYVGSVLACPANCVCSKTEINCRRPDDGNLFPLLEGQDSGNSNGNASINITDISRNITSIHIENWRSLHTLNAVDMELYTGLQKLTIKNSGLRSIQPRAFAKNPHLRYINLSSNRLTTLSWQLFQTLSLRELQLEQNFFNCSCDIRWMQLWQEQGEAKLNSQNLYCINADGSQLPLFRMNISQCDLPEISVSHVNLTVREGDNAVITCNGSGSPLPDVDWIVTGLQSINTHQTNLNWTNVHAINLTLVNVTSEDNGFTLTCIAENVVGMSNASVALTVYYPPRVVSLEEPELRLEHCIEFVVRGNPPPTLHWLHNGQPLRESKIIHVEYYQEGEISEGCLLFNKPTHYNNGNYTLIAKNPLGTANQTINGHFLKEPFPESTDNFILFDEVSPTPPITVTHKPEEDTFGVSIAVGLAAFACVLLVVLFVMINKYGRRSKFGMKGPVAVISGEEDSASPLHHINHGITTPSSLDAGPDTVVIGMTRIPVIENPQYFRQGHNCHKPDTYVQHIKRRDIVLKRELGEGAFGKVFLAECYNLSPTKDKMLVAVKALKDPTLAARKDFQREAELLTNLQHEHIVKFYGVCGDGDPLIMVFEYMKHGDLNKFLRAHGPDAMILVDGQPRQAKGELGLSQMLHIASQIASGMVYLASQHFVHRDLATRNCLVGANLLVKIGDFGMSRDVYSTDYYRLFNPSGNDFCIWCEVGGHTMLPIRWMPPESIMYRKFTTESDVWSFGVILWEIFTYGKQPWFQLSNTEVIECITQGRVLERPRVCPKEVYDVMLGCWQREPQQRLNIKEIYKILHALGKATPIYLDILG
UniProt O96013: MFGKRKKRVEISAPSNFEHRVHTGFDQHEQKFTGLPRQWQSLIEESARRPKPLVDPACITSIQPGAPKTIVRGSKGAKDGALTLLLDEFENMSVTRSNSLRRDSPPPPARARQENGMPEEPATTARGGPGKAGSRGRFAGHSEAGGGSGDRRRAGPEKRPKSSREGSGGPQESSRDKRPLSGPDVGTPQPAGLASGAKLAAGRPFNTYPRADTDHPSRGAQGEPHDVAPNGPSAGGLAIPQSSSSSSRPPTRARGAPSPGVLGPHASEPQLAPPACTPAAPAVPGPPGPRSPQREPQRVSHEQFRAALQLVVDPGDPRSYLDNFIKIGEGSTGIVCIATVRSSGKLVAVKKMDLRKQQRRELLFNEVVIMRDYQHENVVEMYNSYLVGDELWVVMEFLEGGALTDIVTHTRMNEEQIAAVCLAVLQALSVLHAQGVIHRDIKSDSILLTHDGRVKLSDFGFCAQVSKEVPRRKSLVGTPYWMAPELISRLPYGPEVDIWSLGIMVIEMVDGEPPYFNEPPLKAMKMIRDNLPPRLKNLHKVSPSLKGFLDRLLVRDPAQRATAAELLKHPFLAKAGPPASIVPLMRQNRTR
UniProt P09619, whole entry: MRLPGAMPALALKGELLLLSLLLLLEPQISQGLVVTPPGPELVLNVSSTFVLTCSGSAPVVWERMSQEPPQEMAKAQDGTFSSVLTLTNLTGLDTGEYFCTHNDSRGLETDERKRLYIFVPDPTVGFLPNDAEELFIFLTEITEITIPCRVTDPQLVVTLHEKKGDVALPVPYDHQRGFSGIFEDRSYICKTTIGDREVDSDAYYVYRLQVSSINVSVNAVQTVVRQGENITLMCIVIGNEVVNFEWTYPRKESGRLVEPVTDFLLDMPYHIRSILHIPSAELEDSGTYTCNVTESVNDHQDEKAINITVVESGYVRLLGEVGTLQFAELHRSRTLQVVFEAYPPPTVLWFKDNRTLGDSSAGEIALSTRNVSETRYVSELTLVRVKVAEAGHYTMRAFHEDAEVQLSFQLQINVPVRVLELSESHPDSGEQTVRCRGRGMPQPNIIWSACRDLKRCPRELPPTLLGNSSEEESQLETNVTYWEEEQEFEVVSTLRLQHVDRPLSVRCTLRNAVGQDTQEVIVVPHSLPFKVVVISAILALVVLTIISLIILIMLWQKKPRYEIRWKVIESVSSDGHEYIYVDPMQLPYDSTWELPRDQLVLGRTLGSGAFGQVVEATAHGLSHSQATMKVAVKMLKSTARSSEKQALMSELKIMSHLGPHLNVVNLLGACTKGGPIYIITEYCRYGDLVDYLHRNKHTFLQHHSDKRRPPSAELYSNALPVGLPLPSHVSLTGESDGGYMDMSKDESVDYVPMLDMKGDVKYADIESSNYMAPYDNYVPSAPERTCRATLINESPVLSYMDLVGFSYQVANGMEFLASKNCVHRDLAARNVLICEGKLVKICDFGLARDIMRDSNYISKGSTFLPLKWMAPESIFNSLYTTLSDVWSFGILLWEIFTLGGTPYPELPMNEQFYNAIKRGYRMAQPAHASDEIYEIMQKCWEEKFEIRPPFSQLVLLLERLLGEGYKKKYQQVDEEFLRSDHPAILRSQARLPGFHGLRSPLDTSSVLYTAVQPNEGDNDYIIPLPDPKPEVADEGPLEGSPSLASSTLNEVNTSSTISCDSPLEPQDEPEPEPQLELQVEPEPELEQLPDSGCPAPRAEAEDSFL

How the values were obtained:
Assay in all cases: kinase-Nluc reporter destabilization hit call (1 = scored as downregulated) (binary); higher = compound decreases kinase abundance
Conditions in all cases: K562; 2-18 h
IRAK3 = IRAK3 (UniProt Q9Y616)
JAK1 = JAK1 (UniProt P23458)
LCK = LCK (UniProt P06239)
LIMK1 = LIMK1 (UniProt P53667)
LIMK2 = LIMK2 (UniProt P53671)
LMTK2 = LMTK2 (UniProt Q8IWU2)
LYN = LYN (UniProt P07948)
MAP2K1 = MAP2K1 (UniProt Q02750)
MAP2K2 = MAP2K2 (UniProt P36507)
MAP4K2 = MAP4K2 (UniProt Q12851)
MAPK1 = MAPK1 (UniProt P28482)
MAPK4 = MAPK4 (UniProt P31152)
MAPKAPK2 = MAPKAPK2 (UniProt P49137)
MKNK1 = MKNK1 (UniProt Q9BUB5)
NTRK2 = NTRK2 (UniProt Q16620)
NTRK3 = NTRK3 (UniProt Q16288)
PAK4 = PAK4 (UniProt O96013)
PBK = PBK (UniProt Q96KB5)
PDGFRB = PDGFRB (UniProt P09619)
PDK1 = PDK1 (UniProt Q15118)

Measured: kinase-Nluc reporter destabilization hit call

COc1ccc2c(c[n+](C)c3c4cc5c(cc4ccc23)OCO5)c1OC [Chelerythrine (chloride)] (10 µM)
inactive: IRAK3 = 0 | JAK1 = 0 | LCK 0 | LIMK1 = 0 | LMTK2 = 0 | LYN 0 | MAP2K1 = 0 | MAP2K2 = 0 | MAP4K2 = 0 | MAPK1 = 0 | MAPK4 = 0 | MAPKAPK2 = 0 | MKNK1 = 0 | NTRK2 = 0 | NTRK3 = 0 | PAK4 = 0 | PBK 0 | PDGFRB 0 | PDK1 = 0
active: LIMK2 = 1

Cc1ccccc1-n1c(Cn2cnc3c(N)ncnc32)nc2cccc(C)c2c1=O (10 µM)
inactive: IRAK3 = 0 | JAK1 = 0 | LCK 0 | LIMK1 = 0 | LIMK2 = 0 | LMTK2 = 0 | LYN 0 | MAP2K1 = 0 | MAP2K2 = 0 | MAP4K2 = 0 | MAPK1 = 0 | MAPK4 = 0 | MAPKAPK2 = 0 | MKNK1 = 0 | NTRK2 = 0 | NTRK3 = 0 | PAK4 = 0 | PBK 0 | PDGFRB 0 | PDK1 = 0

C[C@H]1CC[C@]2(NC1)O[C@H]1C[C@H]3[C@@H]4CC[C@H]5C[C@@H](O)CC[C@]5(C)[C@H]4CC[C@]3(C)[C@H]1[C@@H]2C [Tomatidine (hydrochloride)] (10 µM)
inactive: IRAK3 = 0 | JAK1 = 0 | LCK 0 | LIMK1 = 0 | LIMK2 = 0 | LMTK2 = 0 | LYN 0 | MAP2K1 = 0 | MAP2K2 = 0 | MAP4K2 = 0 | MAPK1 = 0 | MAPK4 = 0 | MKNK1 = 0 | NTRK2 = 0 | NTRK3 = 0 | PAK4 = 0 | PBK 0 | PDGFRB 0 | PDK1 = 0

Cc1[nH]ncc1-c1cc2nc([C@H]3CC4CCN3CC4)[nH]c(=O)c2s1 [(R)-Simurosertib] (10 µM)
inactive: IRAK3 = 0 | JAK1 = 0 | LCK 0 | LIMK1 = 0 | LIMK2 = 0 | LMTK2 = 0 | LYN 0 | MAP2K1 = 0 | MAP2K2 = 0 | MAP4K2 = 0 | MAPK1 = 0 | MAPK4 = 0 | MAPKAPK2 = 0 | MKNK1 = 0 | NTRK2 = 0 | NTRK3 = 0 | PAK4 = 0 | PBK 0 | PDGFRB 0 | PDK1 = 0

COc1ccc2c(c1)[nH]c1c(C)nccc12 [Harmine] (10 µM)
inactive: IRAK3 = 0 | JAK1 = 0 | LCK 0 | LIMK1 = 0 | LIMK2 = 0 | LMTK2 = 0 | LYN 0 | MAP2K1 = 0 | MAP2K2 = 0 | MAP4K2 = 0 | MAPK1 = 0 | MAPK4 = 0 | MAPKAPK2 = 0 | MKNK1 = 0 | NTRK2 = 0 | NTRK3 = 0 | PAK4 = 0 | PBK 0 | PDGFRB 0 | PDK1 = 0
